The text below walks through data of PubChem BioAssay AID330 (DTP/NCI, 2004).

Molecules are shown by their SMILES. The list does not hold the whole screen: it is rich in T/C values a quarter to a half above the control, in often repeated tests (any T/C) and in doses without a T/C. Other doses and runs of a compound stand elsewhere. T/C gives the treated animals as a percentage of the vehicle group. Some entries give survivors of the animals treated and no T/C: the source holds a T/C of zero for them, seemingly a mark for toxic or unscored doses. Some doses without a T/C left all or most animals alive at the check, yet need not have been tolerated: the source hardly ever lists a survival T/C far under the control, and the zero likely stands for such cases as well. Counts of survivors are from the toxicity check (mostly the fifth day) where no day follows; animals may have died later. Schedule codes are those of the source, taken here to give the interval after Q, in days (D) or hours (H), and the number of doses after X. Some entries were tested several times; the values are given in rising order. For survival time, this PubChem deposit counts one and a half times the control or more as active, and values a quarter to a half above the control carry no call in these data; other NCI protocols may use other cut-offs. Some T/C values are followed by the survivors on the day toxicity was checked, most often the fifth; without a count, all were alive then.

The test system of this test is P388 leukemia ip, CD2F1 mice, survival T/C. In words: NCI In Vivo Anticancer Drug Screen. Data for tumor model P388 Leukemia (intraperitoneal) in CD2F1 (CDF1) mice. Conditions: T/C endpoint: median survival time, higher T/C = longer survival.
The mark [1] stands for this setting: dose: 400.0 mg/kg/injection, schedule: Q01DX001 (ip), vehicle: saline with Tween-80.
Setting [2] is: dose: 3.13 mg/kg/injection, schedule: Q01DX009 (ip), vehicle: other.
The mark [3] stands for this setting: dose: 6.25 mg/kg/injection, schedule: Q01DX009 (ip), vehicle: other.
Setting [4] is: dose: 12.5 mg/kg/injection, schedule: Q01DX009 (ip), vehicle: other.
[5] abbreviates: dose: 25.0 mg/kg/injection, schedule: Q01DX009 (ip), vehicle: other.
Where [6] appears, read: dose: 50.0 mg/kg/injection, schedule: Q01DX009 (ip), vehicle: other.
The mark [7] stands for this setting: dose: 100.0 mg/kg/injection, schedule: Q01DX009 (ip), vehicle: other.
The mark [8] stands for this setting: dose: 200.0 mg/kg/injection, schedule: Q01DX009 (ip), vehicle: other.
[9] abbreviates: dose: 50.0 mg/kg/injection, schedule: Q01DX009 (ip), vehicle: saline.
The mark [10] stands for this setting: dose: 100.0 mg/kg/injection, schedule: Q01DX009 (ip), vehicle: saline.
Setting [11] is: dose: 200.0 mg/kg/injection, schedule: Q01DX009 (ip), vehicle: saline.
[12] abbreviates: dose: 100.0 mg/kg/injection, schedule: Q01DX005 (ip), vehicle: Klucel (hydroxypropylcellulose) (HPC).
The mark [13] stands for this setting: dose: 200.0 mg/kg/injection, schedule: Q01DX005 (ip), vehicle: Klucel (hydroxypropylcellulose) (HPC).
Setting [14] is: dose: 100.0 mg/kg/injection, schedule: Q01DX009 (ip), vehicle: Klucel (hydroxypropylcellulose) (HPC).
[15] abbreviates: dose: 200.0 mg/kg/injection, schedule: Q01DX009 (ip), vehicle: Klucel (hydroxypropylcellulose) (HPC).

With `CC(C)CCCC(C)C1CCC2C3CC=C4CC(OC(=O)C56C=CC(=O)C5C5C=CC6CC5)CCC4(C)C3CCC12C` (stereo not drawn), the survivor count is reported as 6 of 6 (dose: 6.25 mg/kg/injection, schedule: Q01DX005 (ip), vehicle: distilled water + Tween-80); 6 of 6 (dose: 12.5 mg/kg/injection, schedule: Q01DX005 (ip), vehicle: distilled water + Tween-80); 6 of 6 (dose: 25.0 mg/kg/injection, schedule: Q01DX005 (ip), vehicle: distilled water + Tween-80); 6 of 6 (dose: 50.0 mg/kg/injection, schedule: Q01DX005 (ip), vehicle: distilled water + Tween-80); 6 of 6 (dose: 100.0 mg/kg/injection, schedule: Q01DX005 (ip), vehicle: distilled water + Tween-80).

With `COc1ccc(O)cc1`, the survivor count under setting [1] was 2 of 6.

In the case of `Cc1cc(NCCCCCCCCNc2cc(C)nc3cc(N)ccc23)c2ccc(N)cc2n1`, the T/C is, setting by setting: under setting [2], 133 % of control; (dose: 3.13 mg/kg/injection, schedule: Q01DX009 (ip), vehicle: water) 129 % of control; under setting [3], 134 % of control; (dose: 6.25 mg/kg/injection, schedule: Q01DX009 (ip), vehicle: water) 132 % of control; under setting [4], 133 % of control [5 of 6 alive]; (dose: 12.5 mg/kg/injection, schedule: Q01DX009 (ip), vehicle: water) 136 % of control. Besides, the survivor count runs as follows: under setting [5], 2 of 6; (dose: 25.0 mg/kg/injection, schedule: Q01DX009 (ip), vehicle: water) 3 of 6; under setting [6], 0 of 6; under setting [7], 0 of 6; under setting [8], 0 of 6; (dose: 400.0 mg/kg/injection, schedule: Q01DX009 (ip), vehicle: other) 0 of 6.

With `CCN(CC)CCCC(C)Nc1nncc2cc(Cl)ccc12` (stereo not drawn), under “dose: 200.0 mg/kg/injection, schedule: Q01DX005 (ip), vehicle: saline”, the survivor count was 0 of 6.

With `CCCC[NH-].CCCC[NH-].[I][Pt+2][I]`, the T/C runs as follows: (dose: 1.56 mg/kg/injection, schedule: Q01DX009 (ip), vehicle: other) 128 and 132 % of control; under setting [2], 128 and 138 % of control; under setting [3], 129 and 138 % of control. For the same compound, the survivor count is, setting by setting: under setting [4], 1 of 6 and 6 of 6; under setting [5], 0 of 6; under setting [6], 0 of 6; under setting [7], 0 of 6; under setting [8], 0 of 6.

On to `COc1cc2c(cc1OC)C1Cc3cc(OC)c(OC)cc3[N+]1(C)CC2` (stereo not drawn), for which the survivor count (dose: 200.0 mg/kg/injection, schedule: Q01DX005 (ip), vehicle: saline with Tween-80) is 0 of 6.

Consider `CC1CCC(C)N1CCCCN1C(C)CCC1C` (stereo not drawn), for which the survivor count is 1 of 6 (dose: 25.0 mg/kg/injection, schedule: Q01DX009 (ip), vehicle: saline); 1 of 6 and 3 of 6 under setting [9]; 5 of 6 under setting [10]; 0 of 6 under setting [11]; 0 of 6 (dose: 400.0 mg/kg/injection, schedule: Q01DX009 (ip), vehicle: saline).

As to `COC(=O)C1=CC(=O)N2C(=Nc3cccc4cccc2c34)S1`, the survivor count (dose: 50.0 mg/kg/injection, schedule: Q01DX005 (ip), vehicle: saline with Tween-80) is recorded as 5 of 5.

With `Cc1cc2nc3c(C4OCC(O)C4O)nn(-c4ccc(F)cc4)c3nc2cc1C` (stereo not drawn), the survivor count runs as follows: (dose: 50.0 mg/kg/injection, schedule: Q01DX005 (ip), vehicle: Klucel (hydroxypropylcellulose) (HPC)) 4 of 4; under setting [12], 6 of 6; under setting [13], 6 of 6.

For the compound `C[CH2][Sn]([CH2]C)([S]CCS(=O)(=O)O)[S]CCS(=O)(=O)O`, the T/C (dose: 3.75 mg/kg/injection, schedule: Q01DX005 (ip), vehicle: saline) was 125 and 131 % of control; the T/C (dose: 7.5 mg/kg/injection, schedule: Q01DX005 (ip), vehicle: saline) is 127 and 137 % of control. Besides, the survivor count is 1 of 6 (dose: 15.0 mg/kg/injection, schedule: Q01DX005 (ip), vehicle: saline); 0 of 6 (dose: 60.0 mg/kg/injection, schedule: Q01DX005 (ip), vehicle: saline); 0 of 6 (dose: 120.0 mg/kg/injection, schedule: Q01DX005 (ip), vehicle: saline); 0 of 6 (dose: 240.0 mg/kg/injection, schedule: Q01DX005 (ip), vehicle: saline).

On to `[N-]=[N+]=Nc1ccc(Nc2c3ccccc3nc3ccccc23)cc1`, for which, for the setting “dose: 50.0 mg/kg/injection, schedule: Q01DX009 (ip), vehicle: Klucel (hydroxypropylcellulose) (HPC)”, the T/C is 127 % of control. For the same compound, the survivor count is, setting by setting: under setting [14], 5 of 6; under setting [15], 0 of 6.

Consider `C[C@]12CC[C@H]3[C@@H](CC[C@H]4N(CCCl)CCC[C@]34C)[C@@H]1CC[C@@H]2O`, for which the T/C (dose: 50.0 mg/kg/injection, schedule: Q01DX001 (ip), vehicle: saline) was 135 % of control. The survivor count (dose: 100.0 mg/kg/injection, schedule: Q01DX001 (ip), vehicle: saline) is given as 0 of 6.

For `Clc1cc[c]([Sb]2([c]3ccc(Cl)cc3)([c]3ccc(Cl)cc3)[O]C(C(Cl)(Cl)Cl)[O]2)cc1` (stereo not drawn), the survivor count under setting [14] was 6 of 6 and the survivor count under setting [15] was 1 of 6.

In the case of `CCCCCCCOc1ccc(OCCCC[N+]2(CC)CCCCC2)cc1`, the survivor count is, setting by setting: under setting [9], 0 of 6; under setting [10], 0 of 6; under setting [11], 0 of 6.

With `COc1cc(O)c(CC=C(C)C)cc1O`, the survivor count under setting [13] is reported as 1 of 5.

In the case of `O=C(O)c1ccc([N+](=O)[O-])cc1O.O=C(O)c1ccc([N+](=O)[O-])cc1O.[Cu]`, the survivor count by setting is: (dose: 100.0 mg/kg/injection, schedule: Q01DX001 (ip), vehicle: saline with Tween-80) 0 of 6; (dose: 200.0 mg/kg/injection, schedule: Q01DX001 (ip), vehicle: saline with Tween-80) 0 of 6; under setting [1], 0 of 6.

As for `N#CN=[N+]([O-])c1ccc(Br)cc1`, the survivor count reads like this: (dose: 50.0 mg/kg/injection, schedule: Q04DX003 (ip), vehicle: Klucel (hydroxypropylcellulose) (HPC)) 3 of 6; (dose: 100.0 mg/kg/injection, schedule: Q04DX003 (ip), vehicle: Klucel (hydroxypropylcellulose) (HPC)) 2 of 6; (dose: 200.0 mg/kg/injection, schedule: Q04DX003 (ip), vehicle: Klucel (hydroxypropylcellulose) (HPC)) 0 of 6.

In the case of `O=c1[nH]c2c([N+](=O)[O-])cc(Cl)cc2nc1/C=C(\O)c1ccccc1`, the survivor count (dose: 240.0 mg/kg/injection, schedule: Q01DX005 (ip), vehicle: Klucel (hydroxypropylcellulose) (HPC)) was 6 of 6.

In the case of `O=Cc1ccccc1`, the survivor count (dose: 400.0 mg/kg/injection, schedule: Q01DX009 (ip), vehicle: Klucel (hydroxypropylcellulose) (HPC)) was 4 of 6; the survivor count (dose: 800.0 mg/kg/injection, schedule: Q01DX009 (ip), vehicle: Klucel (hydroxypropylcellulose) (HPC)) is listed as 0 of 6; the survivor count (dose: 1600.0 mg/kg/injection, schedule: Q01DX009 (ip), vehicle: Klucel (hydroxypropylcellulose) (HPC)) is 0 of 6; the survivor count (dose: 3200.0 mg/kg/injection, schedule: Q01DX009 (ip), vehicle: Klucel (hydroxypropylcellulose) (HPC)) is 0 of 6.

As to `CCCC(NC(=O)OCc1ccccc1)C(=O)NC(C)C(=O)O` (stereo not drawn), the survivor count under setting [13] is 5 of 5.

Take `CC1NCCc2c1[nH]c1ccccc21` (stereo not drawn): the survivor count is 2 of 6 under setting [12] and 0 of 6 under setting [13].
